Patent US20240425876A1 (CHIGENOVO, published 2024)
Results are given in words; binding and its absence hold for the method and conditions named. In cells and extracts the contact can be indirect. Some binding calls cover weakened binding; strength is not graded here. Tags and fused reporters may be left off the sequences shown.

T1: C-terminal truncated version (aa 1348-2273) of ABCA4 with a Flag tag at its C-terminus (human) (UniProt P78363)
T1 sequence: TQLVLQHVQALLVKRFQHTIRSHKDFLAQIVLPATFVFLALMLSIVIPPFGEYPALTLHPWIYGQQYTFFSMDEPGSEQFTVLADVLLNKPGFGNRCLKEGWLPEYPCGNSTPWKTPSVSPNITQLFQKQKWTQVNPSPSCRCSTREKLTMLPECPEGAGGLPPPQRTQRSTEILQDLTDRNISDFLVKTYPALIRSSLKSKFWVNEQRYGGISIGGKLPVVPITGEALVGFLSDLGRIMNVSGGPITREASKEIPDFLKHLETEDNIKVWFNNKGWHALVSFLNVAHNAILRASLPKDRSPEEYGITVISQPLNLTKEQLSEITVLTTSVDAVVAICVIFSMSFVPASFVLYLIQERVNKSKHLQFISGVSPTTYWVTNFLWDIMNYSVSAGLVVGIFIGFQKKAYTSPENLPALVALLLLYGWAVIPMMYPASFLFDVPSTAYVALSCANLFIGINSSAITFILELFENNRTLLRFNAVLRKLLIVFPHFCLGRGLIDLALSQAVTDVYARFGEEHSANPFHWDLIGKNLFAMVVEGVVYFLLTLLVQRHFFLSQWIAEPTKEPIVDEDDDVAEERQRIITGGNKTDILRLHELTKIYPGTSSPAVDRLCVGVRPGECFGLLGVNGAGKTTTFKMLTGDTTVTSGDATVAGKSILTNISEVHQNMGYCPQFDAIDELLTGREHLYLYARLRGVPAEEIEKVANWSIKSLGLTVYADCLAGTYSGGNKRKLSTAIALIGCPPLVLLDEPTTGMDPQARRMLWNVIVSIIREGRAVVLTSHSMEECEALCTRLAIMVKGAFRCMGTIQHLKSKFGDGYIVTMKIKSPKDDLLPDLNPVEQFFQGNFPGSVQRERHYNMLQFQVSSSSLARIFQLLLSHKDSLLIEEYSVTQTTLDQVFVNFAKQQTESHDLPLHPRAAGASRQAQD


Tests used:
[1] = target: T1, C-terminal truncated version (aa 1348-2273) of ABCA4 with a Flag tag at its C-terminus (human); test: co-immunoprecipitation: flag antibody beads, HA western blot, HEK293 lysate
[2] = substrate: T2, C* (aa 1-20, 1369-2273) C-terminal truncated version of ABCA4 with a Flag tag at its C-terminus (human) (UniProt P78363); test: as above
T2 sequence: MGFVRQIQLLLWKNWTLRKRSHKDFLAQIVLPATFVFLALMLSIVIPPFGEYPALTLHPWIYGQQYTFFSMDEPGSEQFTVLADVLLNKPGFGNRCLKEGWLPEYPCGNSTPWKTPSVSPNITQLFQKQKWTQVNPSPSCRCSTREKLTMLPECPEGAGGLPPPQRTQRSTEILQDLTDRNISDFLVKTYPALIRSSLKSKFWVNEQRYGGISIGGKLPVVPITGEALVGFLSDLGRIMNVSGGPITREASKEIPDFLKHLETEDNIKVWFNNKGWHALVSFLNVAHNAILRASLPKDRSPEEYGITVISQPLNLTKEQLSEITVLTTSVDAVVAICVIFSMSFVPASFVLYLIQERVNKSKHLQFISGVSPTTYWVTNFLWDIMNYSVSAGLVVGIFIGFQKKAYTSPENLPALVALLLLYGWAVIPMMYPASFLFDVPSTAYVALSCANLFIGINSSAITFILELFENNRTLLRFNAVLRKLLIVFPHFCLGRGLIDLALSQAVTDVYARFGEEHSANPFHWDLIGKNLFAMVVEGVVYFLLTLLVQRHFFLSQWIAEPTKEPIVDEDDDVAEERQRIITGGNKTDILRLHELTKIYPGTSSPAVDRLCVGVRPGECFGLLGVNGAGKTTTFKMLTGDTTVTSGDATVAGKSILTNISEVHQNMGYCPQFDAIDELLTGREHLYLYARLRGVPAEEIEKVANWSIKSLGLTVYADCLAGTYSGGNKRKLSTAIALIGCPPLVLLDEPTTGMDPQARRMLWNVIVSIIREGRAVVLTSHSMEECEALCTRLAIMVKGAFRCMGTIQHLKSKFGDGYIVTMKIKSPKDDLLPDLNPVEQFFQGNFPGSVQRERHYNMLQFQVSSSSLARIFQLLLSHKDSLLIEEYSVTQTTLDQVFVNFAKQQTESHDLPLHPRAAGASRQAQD

binding [1] | binding [2] | Binder
binds | – | N1280 (aa 1-1280) N-terminal truncated version of ABCA4 with an HA tag at its C-terminus (protein, not shown: small tags and cut ends) MGFVRQIQLLLWKNWTLRKRQKIRFVVELVWPLSLFLVLIWLRNANPLYSHHECHFPNKAMPSAGMLPWLQGIFCNVNNPCFQSPTPGESPGIVSNYNNSILARVYRDFQELLMNAPESQHLGRIWTELHILSQFMDTLRTHPERIAGRGIRIRDILKDEETLTLFLIKNIGLSDSVVYLLINSQVRPEQFAHGVPDLALKDIACSEALLERFIIFSQRRGAKTVRYALCSLSQGTLQWIEDTLYANVDFFKLFRVLPTLLDSRSQGINLRSWGGILSDMSPRIQEFIHRPSMQDLLWVTRPLMQNGGPETFTKLMGILSDLLCGYPEGGGSRVLSFNWYEDNNYKAFLGIDSTRKDPIYSYDRRTTSFCNALIQSLESNPLTKIAWRAAKPLLMGKILYTPDSPAARRILKNANSTFEELEHVRKLVKAWEEVGPQIWYFFDNSTQMNMIRDTLGNPTVKDFLNRQLGEEGITAEAILNFLYKGPRESQADDMANFDWRDIFNITDRTLRLVNQYLECLVLDKFESYNDETQLTQRALSLLEENMFWAGVVFPDMYPWTSSLPPHVKYKIRMDIDVVEKTNKIKDRYWDSGPRADPVEDFRYIWGGFAYLQDMVEQGITRSQVQAEAPVGIYLQQMPYPCFVDDSFMIILNRCFPIFMVLAWIYSVSMTVKSIVLEKELRLKETLKNQGVSNAVIWCTWFLDSFSIMSMSIFLLTIFIMHGRILHYSDPFILFLFLLAFSTATIMLCFLLSTFFSKASLAAACSGVIYFTLYLPHILCFAWQDRMTAELKKAVSLLSPVAFGFGTEYLVRFEEQGLGLQWSNIGNSPTEGDEFSFLLSMQMMLLDAAVYGLLAWYLDQVFPGDYGTPLPWYFLLQESYWLGGEGCSTREERALEKTEPLTEETEDPEHPEGIHDSFFEREHPGWVPGVCVKNLVKIFEPCGRPAVDRLNITFYENQITAFLGHNGAGKTTTLSILTGLLPPTSGTVLVGGRDIETSLDAVRQSLGMCPQHNILFHHLTVAEHMLFYAQLKGKSQEEAQLEMEAMLEDTGLHHKRNEEAQDLSGGMQRKLSVAIAFVGDAKVVILDEPTSGVDPYSRRSIWDLLLKYRSGRTIIMSTHHMDEADLLGDRIAIIAQGRLYCSGTPLFLKNCFGTGLYLTLVRKMKNIQSQRKGSEGTCSCSSKGFSTTCPAHVDDLTPEQVLDGDVNELMDVVLHHVPEAKLVECIGQELIFLLPNKNFKHRAYASLFRELEETLADLGLSSFGISDTPLEEIFLKVTEDS
binds | – | N1160 (aa 1-1160) N-terminal truncated version of ABCA4 with an HA tag at its C-terminus (protein, not shown: small tags and cut ends) MGFVRQIQLLLWKNWTLRKRQKIRFVVELVWPLSLFLVLIWLRNANPLYSHHECHFPNKAMPSAGMLPWLQGIFCNVNNPCFQSPTPGESPGIVSNYNNSILARVYRDFQELLMNAPESQHLGRIWTELHILSQFMDTLRTHPERIAGRGIRIRDILKDEETLTLFLIKNIGLSDSVVYLLINSQVRPEQFAHGVPDLALKDIACSEALLERFIIFSQRRGAKTVRYALCSLSQGTLQWIEDTLYANVDFFKLFRVLPTLLDSRSQGINLRSWGGILSDMSPRIQEFIHRPSMQDLLWVTRPLMQNGGPETFTKLMGILSDLLCGYPEGGGSRVLSFNWYEDNNYKAFLGIDSTRKDPIYSYDRRTTSFCNALIQSLESNPLTKIAWRAAKPLLMGKILYTPDSPAARRILKNANSTFEELEHVRKLVKAWEEVGPQIWYFFDNSTQMNMIRDTLGNPTVKDFLNRQLGEEGITAEAILNFLYKGPRESQADDMANFDWRDIFNITDRTLRLVNQYLECLVLDKFESYNDETQLTQRALSLLEENMFWAGVVFPDMYPWTSSLPPHVKYKIRMDIDVVEKTNKIKDRYWDSGPRADPVEDFRYIWGGFAYLQDMVEQGITRSQVQAEAPVGIYLQQMPYPCFVDDSFMIILNRCFPIFMVLAWIYSVSMTVKSIVLEKELRLKETLKNQGVSNAVIWCTWFLDSFSIMSMSIFLLTIFIMHGRILHYSDPFILFLFLLAFSTATIMLCFLLSTFFSKASLAAACSGVIYFTLYLPHILCFAWQDRMTAELKKAVSLLSPVAFGFGTEYLVRFEEQGLGLQWSNIGNSPTEGDEFSFLLSMQMMLLDAAVYGLLAWYLDQVFPGDYGTPLPWYFLLQESYWLGGEGCSTREERALEKTEPLTEETEDPEHPEGIHDSFFEREHPGWVPGVCVKNLVKIFEPCGRPAVDRLNITFYENQITAFLGHNGAGKTTTLSILTGLLPPTSGTVLVGGRDIETSLDAVRQSLGMCPQHNILFHHLTVAEHMLFYAQLKGKSQEEAQLEMEAMLEDTGLHHKRNEEAQDLSGGMQRKLSVAIAFVGDAKVVILDEPTSGVDPYSRRSIWDLLLKYRSGRTIIMSTHHMDEADLLGDRIAIIAQGRLYCSGTPLFLKNCFGTGLYLTLV
binds | binds | N1280* (aa 1-1280*, 2253-2273) N-terminal truncated version of ABCA4 with an HA tag at its C-terminus (protein, not shown: small tags and cut ends) MGFVRQIQLLLWKNWTLRKRQKIRFVVELVWPLSLFLVLIWLRNANPLYSHHECHFPNKAMPSAGMLPWLQGIFCNVNNPCFQSPTPGESPGIVSNYNNSILARVYRDFQELLMNAPESQHLGRIWTELHILSQFMDTLRTHPERIAGRGIRIRDILKDEETLTLFLIKNIGLSDSVVYLLINSQVRPEQFAHGVPDLALKDIACSEALLERFIIFSQRRGAKTVRYALCSLSQGTLQWIEDTLYANVDFFKLFRVLPTLLDSRSQGINLRSWGGILSDMSPRIQEFIHRPSMQDLLWVTRPLMQNGGPETFTKLMGILSDLLCGYPEGGGSRVLSFNWYEDNNYKAFLGIDSTRKDPIYSYDRRTTSFCNALIQSLESNPLTKIAWRAAKPLLMGKILYTPDSPAARRILKNANSTFEELEHVRKLVKAWEEVGPQIWYFFDNSTQMNMIRDTLGNPTVKDFLNRQLGEEGITAEAILNFLYKGPRESQADDMANFDWRDIFNITDRTLRLVNQYLECLVLDKFESYNDETQLTQRALSLLEENMFWAGVVFPDMYPWTSSLPPHVKYKIRMDIDVVEKTNKIKDRYWDSGPRADPVEDFRYIWGGFAYLQDMVEQGITRSQVQAEAPVGIYLQQMPYPCFVDDSFMIILNRCFPIFMVLAWIYSVSMTVKSIVLEKELRLKETLKNQGVSNAVIWCTWFLDSFSIMSMSIFLLTIFIMHGRILHYSDPFILFLFLLAFSTATIMLCFLLSTFFSKASLAAACSGVIYFTLYLPHILCFAWQDRMTAELKKAVSLLSPVAFGFGTEYLVRFEEQGLGLQWSNIGNSPTEGDEFSFLLSMQMMLLDAAVYGLLAWYLDQVFPGDYGTPLPWYFLLQESYWLGGEGCSTREERALEKTEPLTEETEDPEHPEGIHDSFFEREHPGWVPGVCVKNLVKIFEPCGRPAVDRLNITFYENQITAFLGHNGAGKTTTLSILTGLLPPTSGTVLVGGRDIETSLDAVRQSLGMCPQHNILFHHLTVAEHMLFYAQLKGKSQEEAQLEMEAMLEDTGLHHKRNEEAQDLSGGMQRKLSVAIAFVGDAKVVILDEPTSGVDPYSRRSIWDLLLKYRSGRTIIMSTHHMDEADLLGDRIAIIAQGRLYCSGTPLFLKNCFGTGLYLTLVRKMKNIQSQRKGSEGTCSCSSKGFSTTCPAHVDDLTPEQVLDGDVNELMDVVLHHVPEAKLVECIGQELIFLLPNKNFKHRAYASLFRELEETLADLGLSSFGISDTPLEEIFLKVTEDSTESHDLPLHPRAAGASRQAQD
